PubChem BioAssay AID1671195 | Yale University – 2021

Screen: 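Genes whose knockdown alters LDL uptake in liver cancer cells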 (primary screen)
Cell system: human Huh7 hepatoma cells
Reagents: siRNA pool against human genes, 18 nM
Timing: about 2 to 2.5 days of knockdown, then 8 h LDL uptake
Challenge: DiI-labelled LDL at 30 µg/ml for 8 h, in lipoprotein-deficient serum medium
Measurement: 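Per-cell DiI-LDL intensity by automated imaging; well means scaled to the plate median and given as a robust z-score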
Scale: robust z-score: higher = more LDL uptake after knockdown
Active means: 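a gene counts as active if at least two replicate z-scores exceed ±2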
Here is a random part of about 22,000 reagents. Over the whole deposit, about 1,510 (6.9%) were called active. 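Active includes knockdowns raising or lowering LDL uptake; positive z-scores mean more uptake, negative mean less.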 The numbers tell different reagents against one gene apart.

Target gene	pool no.	robust z-score, replicate 1	robust z-score, replicate 2	robust z-score, replicate 3	Call
DPT (GeneID 1805)	1	-0.729	-0.762	-0.491	inactive
LOC441815 (retired record) (GeneID 441815)	1	-1.63	-1.19	-1.43	inactive
MTCP1 (GeneID 4515)	1	-0.932	-1.83	-1.03	inactive
SVOPL (GeneID 136306)	1	-0.338	-0.666	0.585	inactive
TPD52 (GeneID 7163)	1	-1.02	-0.523	-0.328	inactive
NME4 (GeneID 4833)	1	-2.05	-0.958	-2.28	active
SLC6A13 (GeneID 6540)	1	-1.18	-1	-0.749	inactive
GRAMD1C (GeneID 54762)	1	2.2	0.696	1.71	inactive
PLN (GeneID 5350)	1	0.432	-0.46	0.0307	inactive
GNPAT (GeneID 8443)	1	-0.306	0.284	0.418	inactive
CELF2 (GeneID 10659)	1	3.5	3	2.99	inactive
KHDRBS2 (GeneID 202559)	1	5.67	4.69	5.78	active
TNFSF15 (GeneID 9966)	1	0.261	-1.35	-0.397	inactive
MRM2 (GeneID 29960)	1	0.562	-0.0621	0.19	inactive
BKGD (GeneID 28970)	1	-0.25	-2.57	-0.319	inactive
TP53I11 (GeneID 9537)	1	0.342	-0.448	0.0169	inactive
NLGN3 (GeneID 54413)	1	-0.137	-0.471	-0.343	inactive
TINAGL1 (GeneID 64129)	1	2.92	2.55	1.96	active
ZNF883 (GeneID 169834)	1	-0.0623	-0.0781	0.896	inactive
SANBR (GeneID 84542)	1	0.86	0.483	0.821	inactive
MUCL1 (GeneID 118430)	1	-0.281	-0.745	-0.627	inactive
LOC441112 (retired record) (GeneID 441112)	1	0.36	-0.0934	-0.297	inactive
VPS54 (GeneID 51542)	1	0.813	0.346	0.751	inactive
LOXHD1 (GeneID 125336)	1	-0.402	-0.418	0.571	inactive
TRIM49 (GeneID 57093)	1	-1.19	0.332	0.892	inactive
PRR34 (GeneID 55267)	1	0.33	1.41	0.971	inactive
LOC342599 (retired record) (GeneID 342599)	1	-0.0359	-0.0843	0.0532	inactive
NGEF (GeneID 25791)	1	-0.077	-0.591	0.469	inactive
INTS3 (GeneID 65123)	1	0.158	0.306	-0.0307	inactive
MCRIP2 (GeneID 84331)	1	-0.837	-0.358	-0.519	inactive
C5orf58 (GeneID 133874)	1	-0.799	-1.71	-0.629	inactive
ZIC4 (GeneID 84107)	1	-0.547	-0.826	-0.196	inactive
ARHGAP32 (GeneID 9743)	1	-0.562	0.00604	-0.344	inactive
RASL12 (GeneID 51285)	1	0.965	-1.08	-1.06	inactive
ACR (GeneID 49)	1	0.147	-0.333	-0.779	inactive
FSTL5 (GeneID 56884)	1	0.356	0.311	0.123	inactive
LRP5 (GeneID 4041)	1	1.88	2.29	2.66	active
KLHDC1 (GeneID 122773)	1	1.46	1.3	0.959	inactive
MAD2L1 (GeneID 4085)	1	1.49	0.953	1.7	inactive
COL8A1 (GeneID 1295)	1	2.04	1.14	-0.5	inactive
MAPK15 (GeneID 225689)	1	2.66	2.15	1.56	active
LOC642846 (GeneID 642846)	1	3.18	2.34	2.75	active
GAPDHS (GeneID 26330)	1	0.417	-0.341	0.194	inactive
RASGEF1C (GeneID 255426)	1	1.14	1.65	1.12	inactive
AKT1S1 (GeneID 84335)	1	-0.0808	0.489	0.184	inactive
MPHOSPH10P1 (GeneID 643802)	1	1.1	0.665	1.3	inactive
CDK19 (GeneID 23097)	1	-0.453	-0.844	0.0052	inactive
DOC2A (GeneID 8448)	1	-1.36	-0.936	-1.86	inactive
KIF24 (GeneID 347240)	1	-1.01	-0.661	-1.14	inactive
KIF24 (GeneID 347240)	2	-1.41	-1.37	-1.12	inactive
VSIG10L2 (GeneID 338667)	1	1.87	2.4	2.56	active
DLX6-AS1 (GeneID 285987)	1	-0.616	-0.845	-0.504	inactive
LOC388351 (retired record) (GeneID 388351)	1	2.36	2.55	2.14	active
KRTAP1-5 (GeneID 83895)	1	1.3	2.05	2.3	active
CFAP36 (GeneID 112942)	1	0.536	1.34	1.02	inactive
CLASRP (GeneID 11129)	1	-0.973	-1.36	-0.443	inactive
DAP (GeneID 1611)	1	0.38	-1.18	0.172	inactive
EFHD1 (GeneID 80303)	1	0.87	0.419	0.0477	inactive
IGHV1OR15-9 (GeneID 390531)	1	0.488	0.514	0.225	inactive
TRIP12 (GeneID 9320)	1	1.99	0.389	0.681	inactive
RLN2 (GeneID 6019)	1	-0.864	-0.969	-0.316	inactive
LOC441995 (retired record) (GeneID 441995)	1	0.131	0.449	0.845	inactive
FAM216B (GeneID 144809)	1	0.192	0.775	0.61	inactive
MTCL3 (GeneID 387104)	1	0.999	1.98	1.51	inactive
FST (GeneID 10468)	1	-0.00454	0.058	-0.136	inactive
UCHL5 (GeneID 51377)	1	0.267	0.398	0.42	inactive
PPP2R2D (GeneID 55844)	1	-0.83	-1.09	-1.49	inactive
OR6C70 (GeneID 390327)	1	0.452	0.482	0.396	inactive
SGK2 (GeneID 10110)	1	0.764	0.258	0.141	inactive
POU1F1 (GeneID 5449)	1	1.06	1.1	1.5	inactive
LINC03025 (GeneID 440896)	1	0.736	0.394	0.223	inactive
LOC400730 (retired record) (GeneID 400730)	1	-0.161	0.172	0.0516	inactive
RAPGEF4 (GeneID 11069)	1	-0.03	-0.205	0.0208	inactive
C1RL (GeneID 51279)	1	-2.15	-1.27	-1.41	inactive
FOXN2 (GeneID 3344)	1	2.84	2.73	2.98	active
ECE2 (GeneID 9718)	1	1.67	0.98	1.26	inactive
ECE2 (GeneID 9718)	2	0.481	0.0382	-0.135	inactive
LOC389248 (retired record) (GeneID 389248)	1	0.668	1.37	0.559	inactive
NUP62 (GeneID 23636)	1	-2.03	-1.97	-1.88	active
INPPL1 (GeneID 3636)	1	-0.0698	0.655	0.0418	inactive
ZNF615 (GeneID 284370)	1	0.953	1	0.501	inactive
ODAD4 (GeneID 83538)	1	2.34	0.59	1.13	inactive
THAP2 (GeneID 83591)	1	0.775	1.29	0.297	inactive
METTL21EP (GeneID 121952)	1	3.46	3.21	3.14	active
MAP1LC3B (GeneID 81631)	1	-0.247	-0.135	-0.583	inactive
LIMS3 (GeneID 96626)	1	0.274	0.954	1.04	inactive
PPARD (GeneID 5467)	1	1.24	-0.248	0.183	inactive

Ordered by “robust z-score, replicate 3” (lowest first): 4 of the entries above.
Target gene	pool no.	robust z-score, replicate 1	robust z-score, replicate 2	robust z-score, replicate 3	Call
ECE2 (GeneID 9718)	2	0.481	0.0382	-0.135	inactive
LOC389248 (retired record) (GeneID 389248)	1	0.668	1.37	0.559	inactive
ECE2 (GeneID 9718)	1	1.67	0.98	1.26	inactive
FOXN2 (GeneID 3344)	1	2.84	2.73	2.98	active
